Experiment [1] deals with EphA2-Fc (EphA2 extracellular domain fused to the heavy chain of human IgG1) (human) (UniProt P29317). Briefly: phage display biopanning on coated EphA2-Fc.
Experiment [2] has the same target. Briefly: phage display biopanning on recombinant EphA2-Fc coated on 96-well plates.
The target is the same in experiment [3]. In words: phage binding to immobilised EphA2-Fc.
Experiment [4] addresses EphA2 receptor of human cancer cells (PC-3, DU-145, lung cancer lines) (human) (UniProt P29317). In words: precipitation from lysates of 125I-labelled PC3 cells.
Experiment [5] has the same target. In words: precipitation from PC3 cell lysates with EP1-Fc, anti-EphA2 blot.

The chains behind the UniProt entries cited, without tags or fusion partners. Residues count along the entry.
UniProt P29317, residues 24-976: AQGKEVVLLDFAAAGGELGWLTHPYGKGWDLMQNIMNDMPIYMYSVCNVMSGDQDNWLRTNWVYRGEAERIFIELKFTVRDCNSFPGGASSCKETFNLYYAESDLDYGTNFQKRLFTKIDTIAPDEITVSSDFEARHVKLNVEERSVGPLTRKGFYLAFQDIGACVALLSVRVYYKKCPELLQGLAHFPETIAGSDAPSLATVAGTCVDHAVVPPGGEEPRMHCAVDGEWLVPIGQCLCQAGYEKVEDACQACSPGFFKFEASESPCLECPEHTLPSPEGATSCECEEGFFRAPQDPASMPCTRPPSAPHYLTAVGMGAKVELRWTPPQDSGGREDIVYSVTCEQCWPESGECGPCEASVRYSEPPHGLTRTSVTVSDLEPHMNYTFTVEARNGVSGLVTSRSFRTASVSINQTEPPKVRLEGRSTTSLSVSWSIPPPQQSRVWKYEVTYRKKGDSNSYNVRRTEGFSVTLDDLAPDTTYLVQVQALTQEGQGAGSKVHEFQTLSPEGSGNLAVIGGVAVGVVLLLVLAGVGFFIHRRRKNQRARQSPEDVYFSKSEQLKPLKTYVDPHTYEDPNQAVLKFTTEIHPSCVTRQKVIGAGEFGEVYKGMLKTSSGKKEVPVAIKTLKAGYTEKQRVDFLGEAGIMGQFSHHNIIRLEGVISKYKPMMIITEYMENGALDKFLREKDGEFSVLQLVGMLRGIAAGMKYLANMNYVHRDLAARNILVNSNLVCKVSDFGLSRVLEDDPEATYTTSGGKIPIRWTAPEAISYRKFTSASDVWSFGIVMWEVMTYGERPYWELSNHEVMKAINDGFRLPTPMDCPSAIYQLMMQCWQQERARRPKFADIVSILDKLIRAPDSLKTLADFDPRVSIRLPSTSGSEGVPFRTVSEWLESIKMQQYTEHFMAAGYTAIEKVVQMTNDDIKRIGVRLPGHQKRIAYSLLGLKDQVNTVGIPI

No constants are given. Whether binding was seen depends on the method and setting. Some binding calls cover weakened binding; strength is not graded here. For part of these data: Sequences can lack the tags named with a protein.

B1: EP2 peptide (peptide)
peptide: YSCCLNLYTPWPLCDCVEEWA
For B1, in experiment [1], the binding result is reported as “binds”.

B2: EP2 (peptide)
peptide: YSCCLNLYTPWPLCDCVEEWA
As to B2, in experiment [2], the binding entry is listed as “binds”.

B3: M13 phage displaying EP1 peptide (peptide, not shown: large carriers)
chain: RRCVWSTNVYSMEPALFCAA
Regarding B3, the binding result in experiment [3] was “binds”.

B4: EP3 (peptide)
peptide: HSCKALSSTHGMAWPESAL
In the case of B4, the binding result in experiment [2] is reported as “binds”.

B5: EP1 peptide (peptide)
peptide: RRCVWSTNVYSMEPALFCAA
B5: in experiment [1], the binding result is “binds”.

B6: EP3 peptide (peptide)
peptide: HSCKALSSTHGMAWPESAL
With B6, the binding result in experiment [1] was “binds”.

B7: EP1 (peptide)
peptide: RRCVWSTNVYSMEPALFCAA
Regarding B7, the binding entry in experiment [2] is recorded as “binds”.

B8: EP1-Fc fusion protein (Fc fusion, not shown: a dimerising Fc or GST)
chain: RRCVWSTNVYSMEPALFCAA
Regarding B8, the binding entry in experiment [4] and in experiment [5] was “binds” throughout.

For the origin of these results see patent US20090247540A1 (published 2009).
